Measurements from PubChem BioAssay AID2685 (National Center for Advancing Translational Sciences (NCATS), 2010).
Out of some 320,000 compounds screened, about 2,100 (0.66%) were called active. This list was built around the results that the source calls inconclusive (neither active nor inactive); the mix of calls is not that of the screen. Calls come from the whole dose curve; as a rule, active = well fitted inhibition curve with a large enough effect in the signal ratio, with a control signal flat (not every such curve was filed as active); inconclusive = small, poorly fitted or top-dose-only effect, or effect the other way, or a change in a side signal; inactive = flat fitted curve, though single readings scatter; the % refers to the signal ratio. A potency beside an inconclusive call is a rough fit, not a confirmed value.

Test: qHTS Assay for Lipid Storage Modulators in Drosophila S3 Cells
Details: BODIPY lipid droplet fluorescence, 18-24 h, cells fed with added oleic acid; lipid storage change, negative = inhibition: at 46.1 µM (top of the series) unless noted
Outline: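 Laser-scanning cytometry quantifies lipid droplet accumulation (500–530 nm total intensity; droplet/cell object ratio) in oleic acid-fed (400 uM added) Drosophila S3 cells treated with a concentration series. 20 uM Triacsin C defined 100% inhibition.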
% is set by controls: 0 for no effect and ±100 for the full control effect; potency is the fitted concentration of half-maximal effect.

Lipid storage change, negative = inhibition, inconclusive:
CCOc1ccc(NC(=O)CN2CCN(CC(=O)Nc3cc(OC)cc(OC)c3)CC2)cc1 -44.4%, Cc1ccc2cc(C#N)c(NCc3ccco3)nc2c1 138%, C=C(C)CNC(=S)N/N=C/c1c(F)cccc1F 23.2%, COc1cc(/C=C/c2[nH]c(=O)[nH]c(=O)c2[N+](=O)[O-])ccc1OCCC(C)C -5.12%, CC(=O)NC(c1cc(Cl)c2cccnc2c1O)C1CC1 (stereo not given) -22.2%, Cc1ccc(C(=O)C2CCN(CC(=O)NC3CCCCC3)CC2)cc1 23.1%, NCCOc1cnn(-c2ccccc2Cl)c(=O)c1Cl 2.45%, O=C(NC1CC1)C1CCN(C2CCN(C(=O)/C=C/c3cccc(F)c3F)CC2)CC1 -3.74%, O=C(CCCc1ccccc1)Nc1ccc(S(=O)(=O)N2CCOCC2)cc1 -18.2%, CN1CCN(S(=O)(=O)c2ccc(N3CCc4ccccc4C3)nc2)CC1 -24.1%, O=C(Nn1cnc2ccccc2c1=O)c1cccc(Cl)c1 8.32%, CC(C)C[C@H](NC(=O)c1[nH]cnc1C(=O)N[C@@H](C)c1ccccc1)C(=O)OCc1ccccc1 -49.8%, CC1(C2CC2)NC(=O)N(CC(=O)N2CCN(S(=O)(=O)c3ccc(F)c(F)c3)CC2)C1=O (stereo not given) -10.1%

Potency, inconclusive:
CCc1ccccc1N(CC)C(=O)CCc1nc(-c2ccc(C)cc2)no1 16.4 µM [falling, partial curve], O=C(CC1CCCCC1)N1CCCC(c2nc(-c3ccc(S(=O)(=O)N4CCCC4)cc3)no2)C1 (stereo not given) 0.0041 µM [falling, full curve, poor fit], O=C(O)c1ccc(Nc2nc3ccccc3nc2NS(=O)(=O)c2cccs2)cc1 29.1 µM [activator, single point], Cc1cccc(C)c1NC(=O)C1CCCN1C(=O)OC(C)(C)C (stereo not given) 29.1 µM [activator, single point], COc1ccc(NC(=O)CN(C)S(=O)(=O)c2ccc3c(c2)OCCO3)c2ncccc12 29.1 µM [activator, partial curve], COCCOc1ccc(C(F)(F)F)cc1NC(=O)c1ccc(F)cc1 29.1 µM [activator, single point], CCOC(=O)c1sc(Nc2nc3ccc(OC)cc3s2)cc1C 10.3 µM [falling, partial curve, poor fit]
